Test results taken from US20040137592A1, “Novel SMG-1” (Japan Science and Technology Agency, priority 2001, published 2004).
For at least one compound, name, drawing or mass did not settle the structure.

Protein sequences, listed by entry. Tags and fused reporters are not part of them. Residues count along the entry.
UniProt Q96Q15, 111-3661: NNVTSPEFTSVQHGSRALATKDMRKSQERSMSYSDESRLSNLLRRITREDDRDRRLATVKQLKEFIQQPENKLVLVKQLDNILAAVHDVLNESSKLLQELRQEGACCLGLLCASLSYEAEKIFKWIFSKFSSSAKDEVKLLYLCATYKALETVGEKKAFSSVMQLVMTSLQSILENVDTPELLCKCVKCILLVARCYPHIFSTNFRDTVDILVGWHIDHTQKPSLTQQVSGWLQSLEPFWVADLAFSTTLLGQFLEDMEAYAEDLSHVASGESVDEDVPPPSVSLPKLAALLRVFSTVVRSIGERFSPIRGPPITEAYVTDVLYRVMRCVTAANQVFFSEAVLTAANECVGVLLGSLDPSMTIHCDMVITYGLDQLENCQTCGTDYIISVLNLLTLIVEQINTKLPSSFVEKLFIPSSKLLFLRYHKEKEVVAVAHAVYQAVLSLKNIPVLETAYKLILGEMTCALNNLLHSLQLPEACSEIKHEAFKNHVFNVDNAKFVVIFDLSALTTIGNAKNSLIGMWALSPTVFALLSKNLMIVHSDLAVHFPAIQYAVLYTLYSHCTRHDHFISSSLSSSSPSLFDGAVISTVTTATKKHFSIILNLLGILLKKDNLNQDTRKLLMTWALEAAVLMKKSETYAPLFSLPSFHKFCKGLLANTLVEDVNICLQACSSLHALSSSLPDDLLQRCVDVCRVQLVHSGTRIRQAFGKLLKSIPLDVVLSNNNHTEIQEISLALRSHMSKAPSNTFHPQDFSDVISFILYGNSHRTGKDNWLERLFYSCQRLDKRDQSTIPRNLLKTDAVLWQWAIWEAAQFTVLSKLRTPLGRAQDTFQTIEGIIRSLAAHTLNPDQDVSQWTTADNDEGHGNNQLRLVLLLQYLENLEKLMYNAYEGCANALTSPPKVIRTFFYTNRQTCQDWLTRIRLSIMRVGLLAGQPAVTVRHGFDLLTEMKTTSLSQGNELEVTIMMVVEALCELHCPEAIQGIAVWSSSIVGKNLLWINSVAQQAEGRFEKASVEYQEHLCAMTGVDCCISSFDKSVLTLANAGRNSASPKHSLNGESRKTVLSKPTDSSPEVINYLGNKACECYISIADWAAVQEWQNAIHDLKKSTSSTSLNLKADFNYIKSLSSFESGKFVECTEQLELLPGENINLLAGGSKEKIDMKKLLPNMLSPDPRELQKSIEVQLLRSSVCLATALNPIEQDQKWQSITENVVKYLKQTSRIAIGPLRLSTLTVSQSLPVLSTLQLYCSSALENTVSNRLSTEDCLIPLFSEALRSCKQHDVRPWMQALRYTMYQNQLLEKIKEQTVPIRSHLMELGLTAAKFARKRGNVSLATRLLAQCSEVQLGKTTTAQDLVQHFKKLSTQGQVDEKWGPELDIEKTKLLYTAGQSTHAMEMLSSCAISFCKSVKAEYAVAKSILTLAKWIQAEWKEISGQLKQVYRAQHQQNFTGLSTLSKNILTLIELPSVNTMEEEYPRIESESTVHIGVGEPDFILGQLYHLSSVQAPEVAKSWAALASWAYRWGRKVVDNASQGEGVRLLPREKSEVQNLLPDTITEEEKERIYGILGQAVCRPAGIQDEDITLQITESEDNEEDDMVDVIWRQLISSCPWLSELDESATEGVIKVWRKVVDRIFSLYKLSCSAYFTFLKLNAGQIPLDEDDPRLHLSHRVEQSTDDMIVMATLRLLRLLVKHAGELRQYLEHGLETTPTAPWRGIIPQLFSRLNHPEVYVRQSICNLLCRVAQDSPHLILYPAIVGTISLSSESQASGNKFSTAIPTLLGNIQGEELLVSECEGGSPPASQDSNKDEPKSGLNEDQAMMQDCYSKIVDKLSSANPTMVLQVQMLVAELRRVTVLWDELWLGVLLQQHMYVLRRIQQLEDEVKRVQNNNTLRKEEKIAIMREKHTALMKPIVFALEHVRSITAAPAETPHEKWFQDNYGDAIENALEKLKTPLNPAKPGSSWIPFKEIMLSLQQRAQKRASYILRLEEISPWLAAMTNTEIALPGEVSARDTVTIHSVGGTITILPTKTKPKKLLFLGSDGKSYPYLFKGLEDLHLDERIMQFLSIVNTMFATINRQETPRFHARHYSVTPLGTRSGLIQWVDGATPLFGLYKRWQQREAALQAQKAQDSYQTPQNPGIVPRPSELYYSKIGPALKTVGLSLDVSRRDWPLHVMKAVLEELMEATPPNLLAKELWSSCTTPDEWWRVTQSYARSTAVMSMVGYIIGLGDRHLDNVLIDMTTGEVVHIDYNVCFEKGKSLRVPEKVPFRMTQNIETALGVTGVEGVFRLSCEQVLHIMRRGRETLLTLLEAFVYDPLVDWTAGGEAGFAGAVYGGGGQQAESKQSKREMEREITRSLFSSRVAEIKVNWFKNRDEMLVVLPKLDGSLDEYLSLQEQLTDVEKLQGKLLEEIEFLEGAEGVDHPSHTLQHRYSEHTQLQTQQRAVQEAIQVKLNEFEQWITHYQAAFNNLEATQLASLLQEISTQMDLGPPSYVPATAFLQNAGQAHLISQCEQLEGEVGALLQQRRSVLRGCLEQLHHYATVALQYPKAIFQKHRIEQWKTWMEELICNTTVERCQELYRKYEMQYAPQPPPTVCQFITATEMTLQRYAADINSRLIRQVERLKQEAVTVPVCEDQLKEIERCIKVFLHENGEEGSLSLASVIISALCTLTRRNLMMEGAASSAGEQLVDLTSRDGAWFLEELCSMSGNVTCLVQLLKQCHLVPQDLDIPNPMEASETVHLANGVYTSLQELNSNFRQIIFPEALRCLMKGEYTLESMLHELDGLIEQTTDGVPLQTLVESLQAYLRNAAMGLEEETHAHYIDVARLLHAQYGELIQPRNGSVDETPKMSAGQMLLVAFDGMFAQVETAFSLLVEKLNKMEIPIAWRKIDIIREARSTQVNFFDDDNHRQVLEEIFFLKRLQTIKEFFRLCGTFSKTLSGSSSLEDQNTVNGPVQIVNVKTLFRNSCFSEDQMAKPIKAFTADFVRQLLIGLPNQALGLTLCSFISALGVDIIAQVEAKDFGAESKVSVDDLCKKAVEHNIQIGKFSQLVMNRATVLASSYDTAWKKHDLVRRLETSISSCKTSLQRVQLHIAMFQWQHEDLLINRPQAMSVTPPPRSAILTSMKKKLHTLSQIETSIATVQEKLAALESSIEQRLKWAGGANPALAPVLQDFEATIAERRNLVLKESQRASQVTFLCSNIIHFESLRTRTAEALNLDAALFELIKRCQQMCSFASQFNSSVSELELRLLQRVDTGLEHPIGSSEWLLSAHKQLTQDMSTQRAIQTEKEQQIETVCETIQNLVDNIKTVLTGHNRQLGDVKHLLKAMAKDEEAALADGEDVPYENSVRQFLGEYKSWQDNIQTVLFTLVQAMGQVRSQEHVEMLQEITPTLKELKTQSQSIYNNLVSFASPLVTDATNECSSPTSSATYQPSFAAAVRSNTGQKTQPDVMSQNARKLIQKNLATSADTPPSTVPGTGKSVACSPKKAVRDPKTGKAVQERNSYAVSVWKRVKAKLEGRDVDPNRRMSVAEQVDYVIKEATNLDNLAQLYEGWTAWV

Columns and labels:
6H-hSMG-1 = target: T1, 6H-hSMG-1 (Homo sapiens, UniProt Q96Q15); experiment: in vitro kinase assay of 6H-hSMG-1 with hUpf1/SMG-2 fusion protein (S1096) as substrate; type: biochemical; conditions: in the presence of purified recombinant FKBP12; data not shown
T1 construct: made in house; host or cells: 293T cells transfected with SR6H-hSMG-1; immunoprecipitated with anti-polyhistidine antibody
Protocol: The immunoprecipitates obtained in the Example 6(1) were washed with a lysis buffer F containing 0.25 mol/L LiCl, and then washed two times with a 1×kinase reaction buffer [10 mmol/L HEPES-KOH (pH7.5), 50 mmol/L β-glycerophosphoric acid, 50 mmol/L NaCl, 1 mmol/L dithiothreitol (DTT), and 10 mmol/L MnCl2].
To each of the washed immunoprecipitates, 25 μL of 2×kinase reaction buffer (that is, two-fold concentrations of the above kinase reaction buffer) was added. The phosphorylation reaction was started by adding 10 mmol/L ATP and 370 kBq [γ-^32P] ATP (6000 Ci/mmol; Amersham Pharmacia Biotech) in equal amounts (25 μL) and continued, with occasional stirring, at 30° C. for 30 minutes. The final reaction amount was maintained at 50 μL, then 25 μL of a 4×SDS sample buffer was added to stop the reaction. SDS-PAGE was performed at gel concentrations of 5.5% and 12.5%, and then autoradiography was carried out to detect the phosphorylated proteins. The phosphorylation strength of each protein was measured by an Image Analyzer BAS2000 (Fuji Film).
More particularly, 6H-hSMG-1 was prepared in accordance with the procedure described in Example 7(3). In the presence of various concentrations of wortmannin or caffeine shown in FIG. 26 and FIG. 27, the hUpf1/SMG-2 fusion protein (S1096) prepared in Example 9(3) was used as the substrate, to perform an in vitro kinase assay. […]

[1] = test system: BGG-39PTC mRNA in MEF-Tet OFF cells; experiment: BGG reporter mRNA accumulation (NMD) in MEF-Tet OFF cells, Northern blotting; type: cell-based; conditions: 4.5 hours, 50 ng/ml doxycycline, FIG. 29
Protocol: More particularly, MEF-Tet OFF cells were transfected with the reporter plasmid BGG-WT or the reporter plasmid BGG-39 PTC, and re-inoculated in eight dishes. The cells were then treated for 4.5 hours in the presence of 50 ng/ml doxycycline by various concentrations of caffeine (caff.), wortmannin (wort.), rapamycin (rap.), or cyclohexamide (CHX) shown in FIG. 29.
The Total RNA was analyzed by Northern blotting using the BGG probe. In FIG. 29, “BG WT” means the results in the case of use of the reporter plasmid BGG-WT, “BG PTC” means the results in the case of use of the reporter plasmid BGG-39PTC, and “GAPDH” means the results in the case of use of the cDNA of glyceryl aldehyde-3-phosphate dehydrogenase as a probe. Further, “cont.”, “caff.”, “wort.”, “rap.”, and “CHX” show the results of the control (that is, in the absence of wortmannin, caffeine, rapamycin, and cyclohexamide), the results in the presence of caffeine, the results in the presence of wortmannin, the results in the presence of rapamycin, and the results in the presence of cyclohexamide, respectively.

p53 298PTC in N417 cells = experiment: endogenous PTC p53 gene product in N417 cells, Northern and Western blotting; type: cell-based; conditions: 2 μmol/L, 4.5 hours, FIG. 31
p53 in A549 cells = experiment: p53 gene product in control A549 cells, Northern and Western blotting; type: cell-based; conditions: control A549 cells (normal p53), 2 μmol/L, 4.5 hours; FIG. 31
[2] = test system: fragmentated p53 in calu6 cells; experiment: endogenous PTC p53 gene product in Calu6 cells; type: cell-based; conditions: increased amount of compound, 4.5 hours, FIG. 32

Structure (SMILES) | inhibition of hSMG-1 (6H-hSMG-1) | accumulation of BGG 39PTC mRNA [1] | p53 298PTC mRNA (p53 298PTC in N417 cells; Northern blotting) | fragmentated p53 protein (p53 298PTC in N417 cells; Western blotting) | p53 mRNA (p53 in A549 cells) | p53 protein (p53 in A549 cells) | fragmentated p53 [2]
CO[C@H]1C[C@@H]2CC[C@@H](C)[C@@](O)(O2)C(=O)C(=O)N2CCCC[C@H]2C(=O)O[C@H]([C@H](C)C[C@@H]2CC[C@@H](O)[C@H](OC)C2)CC(=O)[C@H](C)/C=C(\C)[C@@H](O)[C@@H](OC)C(=O)[C@H](C)C[C@H](C)/C=C/C=C/C=C/1C [rapamycin] | did not inhibit |  |  |  |  |  | 
COC[C@H]1OC(=O)c2coc3c2[C@@]1(C)C1=C(C3=O)[C@@H]2CCC(=O)[C@@]2(C)C[C@H]1OC(C)=O [wortmannin] |  | resulted in the accumulation of BGG 39PTC | both increased | both increased | neither the mRNA nor the protein increased | neither the mRNA nor the protein increased | increase in the fragmentated p53 was also observed
